A word on the AC50: it is the concentration at which the activity in the assay is half-maximal.

The list shows a part of the results. Shown are side measurements of this screen, not its main read-out; they come without a call. Most of these compounds were active or inconclusive in the main read-out, so they are no random draw. Words in brackets tell the shape of the fitted curve; partial curves, single points and poor fits give uncertain potencies.

A short description of the experiment: qHTS Assay to Find Inhibitors of Chronic Active B-Cell Receptor Signaling. To be noted: ABC-DLBCL IkBa-CBG/CBR reporter, luminescence ratio (green luciferase fused to IkBa over red control in TMD8 lymphoma cells), 4 h. In short, it runs like this:
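TMD8 human ABC-DLBCL cells with doxycycline-inducible IκBα–green luciferase fusion and unfused red luciferase, in 0.5% FBS medium; compounds up to 46 uM, 4 h at 37C. Green/red luminescence ratio, filter-overlap corrected, fitted to concentration-response curves.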
(In general: qHTS replaces the single test concentration by a dilution series.)

The mark [1] stands for this setting: measured here: CBR red luminescence, cell number.

Consider `CCN(CC)C(=O)Cn1cnc2sc(C(=O)Nc3cc(OC)c(OC)c(OC)c3)c(C)c2c1=O`, for which the AC50 under setting [1] is 0.206 µM [rising, full curve, poor fit].

Take `CCCc1cc(=O)n2[nH]c(NCc3ccccc3F)nc2n1`: the AC50 under setting [1] was 29.1 µM [falling, single point]. On the same count and under the same terms, the figure for `O=C1CCCN1c1ccc(S(=O)(=O)Nc2ccc3c(c2)OCCO3)cc1` is 7.31 µM [falling, single point]. Take `O=C(c1cc(-c2cccs2)on1)N1CCN(C(c2ccccc2)c2ccccc2)CC1`: the AC50 under setting [1] is 2.06 µM [rising, partial curve, poor fit].

As for `COc1ccc(NC(=O)CCS(=O)(=O)c2ccccc2Cl)cc1S(=O)(=O)Nc1ccc(Cl)cc1`, under setting [1], the AC50 is 35.5 µM [falling, single point]. As for `CCC(=O)Nc1cccc(-c2nc3cc(C)ccc3o2)c1`, the AC50 under setting [1] is 35.5 µM [falling, single point]. On to `CC(=O)NC(Cc1ccccc1F)C(=O)NC1CCN(C(=O)NCc2ccccc2)CC1` (stereo not given), for which, under setting [1], the AC50 was 12.6 µM [rising, partial curve, poor fit]. Same read-out and setting: the figure for `Cc1cccc([C@@H]2[C@@H]3C(=O)N(Cc4ccccc4)C(=O)[C@@H]3[C@]3(Cc4ccccc4)C(=O)N(c4ccc(C(F)(F)F)cc4)C(=O)N23)c1` is 1.3 µM [falling, full curve]; for `CC(C)(C)OC(=O)N[C@H](C(=O)OC(C)(C)C)c1ccc2c(c1)OCO2` it is 2.06 µM [rising, partial curve, poor fit]; for `Cc1ccc2c(c1)nnn2C1CCN(S(=O)(=O)c2ccc(C(=O)N3C(C)CCCC3C)cc2)CC1` (stereo not given) it is 12.6 µM [falling, partial curve]. As to `CCOC(=O)CCC(=O)N1CCOCCOCCN(C(=O)CCC(=O)OCC)CCOCCOCC1`, the AC50 under setting [1] is 18.4 µM [rising, single point]. As for `CCC(=O)Nc1ccc2nc(C)n(Cc3ccccc3Cl)c(=O)c2c1`, the AC50 under setting [1] is 29.1 µM [rising, single point]. For `O=C(Nc1cccc2ncccc12)c1cccc(Br)c1`, the AC50 under setting [1] was 15.8 µM [rising, single point]. With `O=C(Nc1ccc(O)cc1)c1ccc(C(=O)c2ccccc2)o1`, the AC50 under setting [1] is 4.47 µM [falling, full curve]. Still for that read-out and setting: the figure for `N#Cc1c(NC(=O)c2ccc([N+](=O)[O-])o2)sc2c1CCC2` is 2.24 µM [falling, full curve]; for `O=C(NC(=S)NNC(=O)c1ccccc1F)c1cccnc1` it is 35.5 µM [falling, single point].

Consider `CCN(CC)C(=O)[C@H]1CC(CC(=O)NCCCOC)C(=O)N2CCc3c([nH]c4ccccc34)[C@]12C` (stereo not given in full), for which the concentration at half-maximal activity (AC50) under setting [1] was 4.11 µM [rising, single point]. Same read-out and setting: as for `O=C(NNC(=S)NC1CCCCC1)c1ccc(Cl)s1`, the figure is 7.08 µM [falling, partial curve, poor fit]. On to `Cc1ccc(-c2nnc(-c3ccccc3Br)o2)cc1`, for which the AC50 under setting [1] was 2.24 µM [rising, partial curve, poor fit]. As to `O=C(NNC(=O)c1cc(Cl)ccc1O)c1ccc(NS(=O)(=O)c2cccs2)cc1`, the AC50 under setting [1] was 9.2 µM [falling, partial curve].

With `COc1cc(OC)cc(C(=O)Nc2ccc(Cn3ccnc3)cc2)c1`, the AC50 under setting [1] was 35.5 µM [falling, single point]. In the case of `COc1ccc(C2=Nn3c([n+](C)c4ccccc43)SC2)cc1`, under setting [1], the AC50 was 1.58 µM [rising, full curve, poor fit]. Turning to `Cc1ccc(/C=C2\SC(=S)N(CCC(=O)NNC(=O)c3ccncc3)C2=O)cc1`, the AC50 under setting [1] was 35.5 µM [falling, single point]. As to `CC(C#N)(NC(=O)COC(=O)c1ccccc1NCCO)C1CC1` (stereo not given), under setting [1], the AC50 was 25.9 µM [falling, single point]. Take `COc1cccc(CC(C(=O)Nc2cc(C)ccc2C)c2nn[nH]n2)c1OC` (stereo not given): under setting [1], the AC50 was 0.708 µM [falling, partial curve, poor fit].

`Cn1c(SCc2c(F)cccc2Cl)nnc1-c1cccs1`: under setting [1], the AC50 is 13 µM [falling, single point].

On to `Cc1cs/c(=N\N=C2CCCCC2)n1Cc1ccco1`, for which, for the setting “measured here: IkBa-CBG green luminescence”, the AC50 is 15.8 µM [falling, partial curve, poor fit]. For `COc1ccc(CN2CCS(=O)(=O)CC2)cc1OC`, the AC50 under setting [1] is 6.31 µM [rising, partial curve, poor fit]. Same read-out and setting: the figure for `CC(Sc1n[nH]c(-c2ccccc2)n1)C(=O)c1c(N)n(C)c(=O)n(C)c1=O` (stereo not given) is 32.6 µM [rising, partial curve, poor fit]; for `Cc1c(C)c2ccc(OCC(=O)N3CCC(C(=O)O)CC3)cc2oc1=O` it is 10 µM [falling, partial curve, poor fit]; for `Cc1cc(C(=O)N/N=C/c2ccc[nH]2)n[nH]1` it is 29.1 µM [falling, partial curve, poor fit]. The same measure, in the same setting: the figure for `S=c1[nH]c(-c2ccccc2)cn1/N=C/c1ccccc1Br` is 12.6 µM [falling, partial curve]. Take `C=CCn1cc(CN2CCC(C(=O)Nc3cccc(-c4cccc(Cl)c4)c3)CC2)c(C)n1`: the AC50 under setting [1] is 11.2 µM [falling, partial curve]. Take `CC(=O)Nc1cccc(-c2csc(NCc3ccco3)n2)c1`: under setting [1], the AC50 is 0.231 µM [rising, full curve, poor fit]. Still for that read-out and setting: as for `O=C1C2CCCN2C(c2cccs2)N1c1ccc(Cl)cc1` (stereo not given), the figure is 12.6 µM [rising, partial curve]. As to `CCNS(=O)(=O)c1ccc(NS(=O)(=O)c2cc(C)ccc2C)cc1`, under setting [1], the AC50 is 29.1 µM [falling, single point]. For `COc1cccc(C(=O)Nc2ccccc2)c1`, under setting [1], the AC50 is 8.91 µM [falling, partial curve, poor fit].

Turning to `O=C(Nc1c2c(nn1-c1ccccc1)CS(=O)(=O)C2)c1ccc2c(c1)OCO2`, under setting [1], the AC50 is 3.98 µM [rising, full curve, poor fit]. As for `Cc1cc(C)nc(NC(=O)c2cc(-c3ccc4c(c3)OCO4)nc3ccccc23)c1`, under setting [1], the AC50 was 0.794 µM [rising, full curve, poor fit].

Turning to `O=c1c(Cl)c(N/N=C/c2ccc(Br)cc2)cnn1-c1ccccc1`, the AC50 under setting [1] is 16.4 µM [rising, single point].

For the origin of these results see PubChem BioAssay AID493014 (National Center for Advancing Translational Sciences (NCATS), 2011).
